Taken from: PubChem BioAssay AID1259303 (Sanger Institute, 2017)
Purpose: 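Which silenced kinases add to BYL719, cetuximab or trametinib effects in colorectal cancer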 (follow-up of hits). Cell system: human COLO320HSR colorectal cancer cells. Reagent: single siRNA against human genes. Treatment: anchor drug BYL719 (1 µM), cetuximab (5 µg/ml) or trametinib (10 nM), or DMSO vehicle alone. Detection: 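Replicate-averaged viability relative to non-targeting pool 2 siRNA under DMSO; synergy scores against each drug alone for BYL719 1 µM, cetuximab 5 µg/ml or trametinib 10 nM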. Direction: synergy score with BYL719: higher = stronger combined killing with BYL719; synergy score with cetuximab: higher = stronger combined killing with cetuximab; synergy score with trametinib: higher = stronger combined killing with trametinib. Active means: 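Called active if the synergy score tops 0.10 with BYL719, cetuximab or trametinib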. Calls: active = synergy with at least one drug; inactive = no synergy found.
Shown is one part, drawn at random, of 160 deposited reagents. 11 of all reagents (6.9%) were called active. 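Viability capped at 1; how the synergy score is calculated is not stated; four separate siRNAs target each gene.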 The numbers tell different reagents against one gene apart. Further read-outs or replicates are left out here. Not given: the amount of reagent, the time to read-out.

| gene | reagent no. | synergy score with BYL719 | synergy score with cetuximab | synergy score with trametinib | activity call |
| --- | --- | --- | --- | --- | --- |
| MAP3K8 | 1 | -0.178 | 0 | 0 | inactive |
| MAP3K8 | 2 | -0.237 | -0.0457 | -0.22 | inactive |
| MAP3K8 | 3 | -0.133 | -0.0128 | -0.102 | inactive |
| MAP3K8 | 4 | -0.0698 | 0.00696 | 0 | inactive |
| BRAF | 1 | -0.0412 | 0.14 | -0.0352 | active |
| BRAF | 2 | -0.0484 | 0.00985 | -0.019 | inactive |
| BRAF | 3 | -0.0159 | 0.236 | 0 | active |
| BRAF | 4 | -0.137 | 0 | 0 | inactive |
| COASY | 1 | -0.183 | 0 | 0 | inactive |
| COASY | 2 | 0.0701 | -0.0906 | 0.0297 | inactive |
| COASY | 3 | -0.109 | 0.000339 | -0.176 | inactive |
| COASY | 4 | 0.0723 | 0.0112 | -0.0638 | inactive |
| MAPK4 | 1 | -0.0357 | -0.014 | -0.014 | inactive |
| MAPK4 | 2 | 0.00136 | -0.124 | -0.0825 | inactive |
| MAPK4 | 3 | -0.0148 | 0.0589 | 0 | inactive |
| MAPK4 | 4 | -0.211 | -0.0955 | -0.163 | inactive |
| CDKN2D | 1 | -0.0704 | 0.0742 | -0.0868 | inactive |
| CDKN2D | 2 | -0.0182 | -0.00982 | -0.00982 | inactive |
| CDKN2D | 3 | -0.162 | -0.113 | -0.113 | inactive |
| CDKN2D | 4 | 0.0739 | 0.0304 | -0.0263 | inactive |
| IRAK1 | 1 | -0.0399 | -0.0941 | 0.245 | active |
| IRAK1 | 2 | -0.113 | -0.0934 | -0.121 | inactive |
| IRAK1 | 3 | 0.0545 | -0.025 | 0.18 | active |
| IRAK1 | 4 | -0.0496 | -0.055 | -0.119 | inactive |

A portion of the results above:
| gene | reagent no. | synergy score with BYL719 | synergy score with cetuximab | synergy score with trametinib | activity call |
| --- | --- | --- | --- | --- | --- |
| BRAF | 4 | -0.137 | 0 | 0 | inactive |
| COASY | 1 | -0.183 | 0 | 0 | inactive |
| COASY | 2 | 0.0701 | -0.0906 | 0.0297 | inactive |
| COASY | 3 | -0.109 | 0.000339 | -0.176 | inactive |
